Results reported in PubChem BioAssay AID493014 (National Center for Advancing Translational Sciences (NCATS), 2011).
Some of the results follow. The main result of the screen is listed elsewhere. These columns were measured beside it and carry no call. The list favours compounds with an active or inconclusive main result. Potencies come from curve fits of mixed quality, noted in brackets.

Assay: qHTS Assay to Find Inhibitors of Chronic Active B-Cell Receptor Signaling
Conditions: ABC-DLBCL IkBa-CBG/CBR reporter, luminescence ratio (green luciferase fused to IkBa over red control in TMD8 lymphoma cells), 4 h
In short: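 TMD8 human ABC-DLBCL cells with doxycycline-inducible IκBα–green luciferase fusion and unfused red luciferase, in 0.5% FBS medium; compounds up to 46 uM, 4 h at 37C. Green/red luminescence ratio, filter-overlap corrected, fitted to concentration-response curves.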

[1] = measured here: CBR red luminescence, cell number
[2] = measured here: IkBa-CBG green luminescence

| SMILES | AC50 [1] | AC50 [2] |
| --- | --- | --- |
| O=C(c1cc(-c2cccc(O)c2)on1)N1CCCCCC1 | 0.708 µM [rising, full curve, poor fit] |  |
| Nc1c(S(=O)(=O)c2cc(Cl)ccc2Cl)c2nc3ccccc3nc2n1CCN1CCOCC1 | 4.11 µM [falling, partial curve, poor fit] |  |
| O=C(Nc1nc2ccccc2s1)c1ccc(Cl)s1 | 2.31 µM [falling, full curve] |  |
| COc1ccc2nc(NC(=O)C3COc4ccccc4O3)sc2c1 (stereo not given) | 35.5 µM [falling, partial curve, poor fit] |  |
| Cc1cc(=O)oc2cc(Oc3ncccn3)ccc12 | 6.51 µM [rising, single point] |  |
| CC(C)Cn1c(C(C)C)nc([N+](=O)[O-])c1S(=O)(=O)c1ccc(F)cc1 | 1.41 µM [falling, full curve, poor fit] |  |
| Cc1cc(NC(=O)COC(=O)c2c(C)nn(-c3ccccc3)c2C)no1 | 3.98 µM [rising, single point] |  |
| Cn1ccnc1SCC(=O)Nc1cccc2ccccc12 | 5.62 µM [rising, single point] |  |
| CCN1C(=O)[C@@H]2Cc3c([nH]c4ccccc34)C(c3ccc(OC)cc3)N2C1=S (stereo not given in full) | 35.5 µM [falling, single point] |  |
| O=C(CSc1ncn(-c2ccccc2)n1)c1cccs1 | 8.91 µM [falling, partial curve] |  |
| Fc1cccc(/C=N/NC(=S)Nc2ccccc2Cl)c1 | 3.66 µM [rising, full curve, poor fit] |  |
| O=[N+]([O-])c1cc(S(=O)(=O)N2CCCC2)ccc1SCCO | 14.1 µM [rising, single point] |  |
| Cc1ccc(SCC(=O)c2c(C)nc3ccccn23)cc1 | 35.5 µM [falling, single point] |  |
| Cc1ccc(-c2csc3ncnc(N4CCN(C(=O)c5ccccc5)CC4)c23)cc1 | 25.9 µM [falling, single point] |  |
| Cc1ccc(C(=O)Nc2ccc(CC(=O)O)cc2)o1 | 0.259 µM [rising, full curve, poor fit] |  |
| N#Cc1c(Cl)c(Cl)c2nnc(-c3ccc(Br)cc3)n2c1Cl | 12.6 µM [falling, partial curve] |  |
| CC1=C(C(=O)Nc2cc(C(=O)NCCC(C)C)ccc2C)SCCO1 | 35.5 µM [rising, partial curve, poor fit] |  |
| CCN1C(=O)/C(=C/N(C)c2ccccc2)OC1=S | 18.4 µM [falling, single point] |  |
| Cc1nc(NC(=O)c2ccc(Br)o2)ccc1Br | 2.51 µM [rising, partial curve, poor fit] |  |
| O=c1cc(-c2ccc(Cl)cc2)[nH][nH]1 |  | 23.1 µM [falling, single point] |
| CC(CNC(=O)COC(=O)c1cccs1)c1ccccc1 (stereo not given) | 3.66 µM [rising, single point] |  |

A run of entries from the list above, as a working copy:

| SMILES | AC50 [1] | AC50 [2] |
| --- | --- | --- |
| O=[N+]([O-])c1cc(S(=O)(=O)N2CCCC2)ccc1SCCO | 14.1 µM [rising, single point] |  |
| Cc1ccc(SCC(=O)c2c(C)nc3ccccn23)cc1 | 35.5 µM [falling, single point] |  |
| Cc1ccc(-c2csc3ncnc(N4CCN(C(=O)c5ccccc5)CC4)c23)cc1 | 25.9 µM [falling, single point] |  |
| Cc1ccc(C(=O)Nc2ccc(CC(=O)O)cc2)o1 | 0.259 µM [rising, full curve, poor fit] |  |
| N#Cc1c(Cl)c(Cl)c2nnc(-c3ccc(Br)cc3)n2c1Cl | 12.6 µM [falling, partial curve] |  |

(listing goes on)

| SMILES | AC50 [1] | AC50 [2] |
| --- | --- | --- |
| Cc1ccc(SC(CC(=O)c2ccc(F)cc2)C(=O)O)cc1 (stereo not given) | 17.8 µM [falling, single point] |  |
| CC1CCCCC1NC(=O)c1cc2c(s1)CS(=O)(=O)C2 (stereo not given) | 2.31 µM [falling, partial curve, poor fit] |  |
| COC(=O)Cc1csc(Nc2ccccc2)n1 | 4.61 µM [rising, partial curve, poor fit] |  |
| c1ccc2c(c1)nc(Nc1ccc(N3CCCCC3)cc1)c1nncn12 | 12.6 µM [rising, partial curve, poor fit] | 14.1 µM [falling, partial curve, poor fit] |
| COc1cccc(NC(=O)CSc2nnc(-c3cc(-c4ccccn4)nc4ccccc34)o2)c1 | 29.1 µM [falling, single point] |  |
| Cn1nnc2cc(C(=O)Nc3ccc4ccccc4c3)ccc21 | 0.0891 µM [rising, full curve, poor fit] |  |
| COc1ccc(Nc2nc(C)cc(C)c2C(N)=O)cc1OC | 35.5 µM [rising, partial curve, poor fit] |  |
| COc1ccc(Cl)cc1NC(=O)CSc1nc(=O)[nH]c2c1CCC2 | 0.398 µM [falling, full curve, poor fit] |  |
| Cc1nc2ncnn2c(C)c1CCC(=O)NC(C)c1ccc2c(c1)OCCO2 (stereo not given) | 10 µM [falling, partial curve] |  |
| CCC(=O)c1ccccc1OCCN1CCN(CC)CC1 | 0.1 µM [rising, full curve, poor fit] |  |
| O=C(NNC(=O)c1ccc(F)cc1F)c1ccc2c(c1)OCO2 | 11.2 µM [falling, partial curve] |  |
| CCOC(=O)c1ccccc1NS(=O)(=O)c1ccc(OCC)cc1 | 4.61 µM [rising, full curve, poor fit] | 7.31 µM [falling, partial curve] |
| Cc1cc(C)n2ncc(C(=O)NC3CCCCC3)c2n1 | 0.126 µM [rising, full curve, poor fit] |  |
| CC(C)OC(=O)c1cc(C(=O)c2cc(Br)ccc2O)coc1=N | 17.8 µM [falling, single point] |  |
| Cc1cc(/C=C(\C#N)C(=O)Nc2ccc(F)cc2)c(C)n1-c1ccc(N2CCOCC2)c([N+](=O)[O-])c1 | 0.103 µM [rising, full curve, poor fit] |  |
| O=C(NCc1ccco1)C1CCC(N2C(=O)C3C4CCC(C4)C3C2=O)CC1 (stereo not given) | 15.8 µM [rising, partial curve, poor fit] |  |
| COc1ccc2nc(NC(=O)c3ccco3)sc2c1 | 2.82 µM [falling, full curve, poor fit] |  |
| CCN(CC)S(=O)(=O)c1ccc(NC(=O)CSc2cccc[n+]2[O-])cc1 | 0.411 µM [rising, full curve, poor fit] |  |
| COc1ccc(C)cc1S(=O)(=O)Nc1ccccc1 | 29.1 µM [rising, single point] |  |
| O=C(Nc1ccc(Cl)cc1F)c1cc(S(=O)(=O)NC2CCCCCC2)ccc1F | 7.94 µM [falling, single point] |  |
| COc1cccc(NC(=O)CSc2ncnc3c2cnn3Cc2ccccc2)c1 | 6.51 µM [falling, single point] |  |

| SMILES | AC50 [1] | AC50 [2] |
| --- | --- | --- |
| FC(F)c1nc2ccccc2[nH]1 | 3.98 µM [falling, full curve, poor fit] |  |
| COC(=O)Nc1ccc(S(=O)(=O)N2CCCC(C(=O)N3CC(C)OC(C)C3)C2)cc1 (stereo not given) | 17.8 µM [rising, partial curve, poor fit] |  |
| CCc1cc(=O)oc2c(C)c(OCC(=O)NCCN3CCOCC3)ccc12 | 20 µM [rising, single point] |  |
| COc1ccc(C(=O)N2CCCC(c3ccccc3)=N2)cc1 | 4.47 µM [falling, partial curve, poor fit] |  |
| COc1cc(C=C2C(=O)OC(C)(C)OC2=O)ccc1OCC(=O)Nc1ccccc1 | 12.6 µM [falling, partial curve, poor fit] |  |
| COc1ccc(C(=O)NCc2nnc(SCC(=O)NO)n2Cc2ccccc2)cc1 | 22.4 µM [falling, partial curve, poor fit] |  |
| COc1cc2c(cc1OC)C(c1cccc([N+](=O)[O-])c1)NC(=O)C2 (stereo not given) | 5.62 µM [rising, partial curve] |  |
| COc1ccc(/C=N/NC(=O)c2cccc(NC(=O)c3ccccc3Cl)c2)cc1OC | 3.16 µM [falling, full curve] |  |
| COc1ccc2oc(C(=O)OCC(=O)NC(=O)NC(C)C)c(C)c2c1 | 29.1 µM [falling, single point] |  |
| C#CCOCCOCCOCCNc1nc(N2CCN(C(=O)CCCCCCCCCCNC(=O)[C@H](CO)n3cc(CCCCCN)nn3)CC2)nc(N2CCN(C(=O)CCCCCCCCCCNC(=O)[C@H](CCCN=C(N)N)n3cc(C[C@@H](C)CC)nn3)CC2)n1 | 29.1 µM [rising, single point] |  |
| COc1ccccc1OCCNCC(O)COc1cccc2[nH]c3ccccc3c12 (stereo not given) |  | 35.5 µM [rising, partial curve, poor fit] |
| COc1cc(/C=N/n2cnnc2)ccc1OCc1ccc(C)cc1 | 0.651 µM [rising, full curve, poor fit] |  |
| COc1ccccc1-n1ccnc(SCC(=O)NC2CCCCC2)c1=O | 4.61 µM [falling, partial curve, poor fit] |  |
| CCCc1cc(=O)oc2cc(C)c3c(C)coc3c12 | 10 µM [rising, partial curve] |  |
| COC(=O)c1ccc(COC(=O)c2ccc(C)c(S(=O)(=O)N3CCCCC3)c2)cc1 | 16.4 µM [falling, single point] |  |
| CC1(C)CC(CC(=O)Nc2nccs2)(c2ccccc2)CCO1 (stereo not given) | 35.5 µM [falling, single point] |  |
| C=CCSc1nnc(-c2cc3c(-c4ccccc4)nn(C)c3s2)n1C | 15.8 µM [falling, partial curve] |  |
| C=CCn1c(SCc2cc(=O)n3ccsc3n2)nc2cc(Cl)ccc2c1=O | 0.355 µM [rising, partial curve, poor fit] |  |
| Cc1ccc(-c2csc(NC(=O)CSc3nc4ccccc4o3)n2)cc1 | 6.51 µM [rising, single point] |  |
| CCCCN(C(=O)c1ccc([N+](=O)[O-])s1)c1c(N)n(CC(C)C)c(=O)[nH]c1=O | 20.6 µM [rising, partial curve, poor fit] |  |
| CN(CCCC[C@H](CNCc1ccc(-c2ccccc2)cc1)N1C[C@H](c2ccccc2)N(CCc2ccc(Cl)c(Cl)c2)C(=O)C1=O)Cc1ccc(-c2ccccc2)cc1 | 35.5 µM [falling, single point] |  |
